{
  "source": "paper PMC12040169",
  "about": "(PLOS Biology, 2025)",
  "note": "The other results are listed elsewhere or left out.",
  "data": [
    {"system": "T1, CTL2-GFP (C. trachomatis L2/434/Bu, GFP-expressing)", "T1 construct": "L2/434/Bu, GFP-expressing", "design": "species or system HeLa; Intracellular C. trachomatis growth in HeLa cells, bulk GFP fluorescence relative to DMSO", "details": "bulk GFP, single well; 28.5 h, 10 µM; inhibitor", "units": {"% of control remaining": "%"}, "values": [
      {"smiles": "CC1CCC(N(Cc2nnc(C(C)C)o2)CC2CCCO2)CC1", "note": "(stereo not shown) [CBK305169]", "% of control remaining": 100.429},
      {"smiles": "NC(=O)c1ccc(-n2ncc(-c3ccsc3)n2)cc1", "note": "[CBK112858]", "% of control remaining": 141.025},
      {"smiles": "CC1=NNC(=S)NC(C)(C)C1", "note": "[CBK021597]", "% of control remaining": 72.9584},
      {"smiles": "Cc1c(Cl)cccc1S(=O)(=O)Nc1cccc(C(=O)Nc2ccc(F)cc2)c1", "note": "[CBK038983]", "% of control remaining": 89.3338},
      {"smiles": "Cc1ccc(CCC(=O)NNc2ccccc2)o1", "note": "[CBK260924]", "% of control remaining": 104.556},
      {"smiles": "CC(=O)N1CCC2(C/C=C/C[C@H]3CN(C(=O)CCC4CCCC4)CC[C@H]3NC(=O)CNC2=O)CC1", "note": "[CBK292111]", "% of control remaining": 145.786},
      {"smiles": "O=C(Cn1ncn2c(cc3ccsc32)c1=O)N1CCCCCC1", "note": "[CBK284202]", "% of control remaining": 107.476},
      {"smiles": "O=C(COc1ccc2ccccc2c1)N1CCN(S(=O)(=O)c2ccc([N+](=O)[O-])cc2)CC1", "note": "[CBK264277]", "% of control remaining": 136.707},
      {"smiles": "CC(C)Cc1nsc(NC2CCCN(c3ccn(C)n3)C2=O)n1", "note": "(stereo not shown) [CBK304696]", "% of control remaining": 168.553},
      {"smiles": "NC(=O)C1CCN(C(=O)C2=NN(c3ccccc3)C(c3ccccc3)C2)CC1", "note": "(stereo not shown) [CBK296760]", "% of control remaining": 120.682},
      {"smiles": "COCCC(=O)Nc1cccc(N2CCNCC2)c1", "note": "[CBK004769T]", "% of control remaining": 121.243},
      {"smiles": "O=C1CCC(=O)N1CCOc1nccnc1N1CCN(CCCn2c(=O)[nH]c3ccccc32)CC1", "note": "[CBK084300]", "% of control remaining": 49.949},
      {"smiles": "CCC(CO)NCc1ccc(OCC(N)=O)cc1", "note": "(stereo not shown) [CBK304670]", "% of control remaining": 110.663},
      {"smiles": "CC(Oc1ccc(Br)cc1)C(=O)Nc1ccc(C(N)=O)cc1", "note": "(stereo not shown) [CBK266760]", "% of control remaining": 104.259},
      {"smiles": "N#Cc1c(NC(=S)NC(=O)c2ccc(-c3cccc([N+](=O)[O-])c3)o2)sc2c1CCCC2", "note": "[CBK268471]", "% of control remaining": 124.689},
      {"smiles": "CCSc1nc(N2CCNC[C@@H]2C)ccc1C(F)(F)F", "note": "[CBK003986A]", "% of control remaining": 106.479},
      {"smiles": "c1ccc2oc(-c3cc4ccccc4o3)cc2c1", "note": "[CBK113363]", "% of control remaining": 111.032},
      {"smiles": "COc1cc(N)c(Cl)cc1C(=O)OCc1cc2ccc(C)cc2nc1Cl", "note": "[CBK296755]", "% of control remaining": 139.548},
      {"smiles": "Cc1c(C(=O)NC(Cc2ccsc2)c2cccnc2)cnn1C", "note": "(stereo not shown) [CBK285115]", "% of control remaining": 91.5272},
      {"smiles": "O=C(CO)N1CC2(CCN(Cc3cc(=O)[nH]c(=O)[nH]3)CC2)c2ccccc21", "note": "[CBK131510]", "% of control remaining": 100.184},
      {"smiles": "Cc1cc(C)nc(N2CCC(CC(=O)NCc3ccccc3N3CCCC3)CC2)n1", "note": "[CBK286071]", "% of control remaining": 128.376},
      {"smiles": "CN(Cc1ccccc1)c1nccnc1-c1ccccc1Cl", "note": "[CBK037502]", "% of control remaining": 126.189},
      {"smiles": "COc1ncc(-c2nccnc2Oc2cccc(NC(C)=O)c2)c(OC)n1", "note": "[CBK106747]", "% of control remaining": 121.754},
      {"smiles": "O=c1c2ccccc2nc2n1CCN(Cc1c(F)cccc1F)CC2", "note": "[CBK284817]", "% of control remaining": 99.1624},
      {"smiles": "COc1ccc2c(CCNC(=O)C(c3ccccc3)c3ccccc3)c[nH]c2c1", "note": "[CBK269294]", "% of control remaining": 140.727},
      {"smiles": "OCCNCCNCc1ccc(-c2ccccc2)cc1", "note": "[CBK278269C]", "% of control remaining": 64.0332},
      {"smiles": "O=C(Nc1cccc(Br)c1)C1CN(S(=O)(=O)c2ccccc2)CCN1S(=O)(=O)c1ccccc1", "note": "(stereo not shown) [CBK262671]", "% of control remaining": 99.2937},
      {"smiles": "COCCN1C(=O)CO[C@H]2CN(C(=O)Nc3ccc(F)cc3)C[C@H]21", "note": "[CBK289705]", "% of control remaining": 92.1206},
      {"smiles": "Cc1cc2ncc3c(n2n1)CC1CCC3N1Cc1ccccc1", "note": "(stereo not shown) [CBK282266]", "% of control remaining": 105.371},
      {"smiles": "N=C1NS(=O)(=O)NC1c1ccc(Cl)cc1", "note": "(stereo not shown) [CBK263858]", "% of control remaining": 100},
      {"smiles": "Cc1ccc(C(=O)COC(=O)C(Cc2ccccc2)N2C(=O)c3cc(Cl)c(Cl)cc3C2=O)cc1", "note": "(stereo not shown) [CBK264176]", "% of control remaining": 125.681},
      {"smiles": "COCCNc1nc(-c2ccsc2)ccc1C(=O)N1CCN(C)CC1", "note": "[CBK105948]", "% of control remaining": 109.651},
      {"smiles": "c1ccc(-c2cccc(-c3cc(Nc4ccc(N5CCOCC5)cc4)ncn3)c2)cc1", "note": "[CBK090930]", "% of control remaining": 165.912},
      {"smiles": "CCN1CCC2(CCC1=O)CN(Cc1cncn1CC(C)C)CCN2C", "note": "(stereo not shown) [CBK306947]", "% of control remaining": 108.564},
      {"smiles": "Cc1ccc(N2CCCN(C(=O)CCc3ccsc3)CC2)nn1", "note": "[CBK304573]", "% of control remaining": 135.101},
      {"smiles": "CC(C)(C)OC(=O)Nc1ccc(Oc2ncc(C(F)(F)F)cc2Cl)cc1", "note": "[CBK161658]", "% of control remaining": 101.928},
      {"smiles": "CCCc1cc(=O)[nH]c(Nc2ccc(OCC)cc2)n1", "note": "[CBK288140]", "% of control remaining": 80.1538},
      {"smiles": "O=S(=O)(c1ccc(C(F)(F)F)cc1Cl)N1CCN(Cc2c[nH]nc2-c2cccs2)CC1", "note": "[CBK062864]", "% of control remaining": 95.221},
      {"smiles": "COc1cccc(CCOc2cncc(Cl)n2)c1", "note": "[CBK113556]", "% of control remaining": 103.938},
      {"smiles": "CC1CN(Cc2nc3c(c(=O)[nH]c(=O)n3C)n2CCc2ccccc2)CC(C)O1", "note": "(stereo not shown) [CBK269876]", "% of control remaining": 92.6778}
    ]}
  ]
}
